# From US8680091B2, “6-arylalkylamino-2,3,4,5-tetrahydro-1H-benzo[d]azepines as 5-HT2C receptor agonists” (Eli Lilly and Company, priority 2005, dated 2014)
# At least one compound was matched to its structure with a doubt left.
# What was measured:
# male NIH Swiss mice [1] = experiment: Marble burying assay (with rotorod); type: in vivo, mouse; conditions: marbles buried in 30 min, rotorod for motor impairment
# Text: Marble burying in mice has been used to model anxiety disorders including obsessive-compulsive disorders (OCD) due to ethological study of the behavior (e.g. Gyertyan I. “Analysis of the marble burying response: Marbles serve to measure digging rather than evoke burying”, Behavioural Pharmacology 6: 24-31, (1995)) and due to the pharmacological effects of clinical standards (c.f., Njung'E K. Handley S L. “Evaluation of marble-burying behavior as a model of anxiety”, Pharmacology, Biochemistry & Behavior. 38: 63-67, (1991)); Borsini F., Podhorna J., and Marazziti, D. “Do animal models of anxiety predict anxiolytic effects of antidepressants?”, Psychopharmacology 163: 121-141, (2002)).
# House experimentally-naïve male, NIH Swiss mice (Harlan Sprague-Dawley, Indianapolis, Ind.) weighing between 28-35 g in groups of 12 for at least three days prior to testing in a vivarium with 12 h light and dark cycles. Conduct experiments during the light cycle in a dimly lit experimental testing room. Dose mice with vehicle or test compound and, after a specified pretreatment interval (generally 30 min.), place each mouse individually on a rotorod (Ugo Basile 7650) operating at a speed of 6 revolutions/min. and observe for falling. […]
# Clinically effective standard compounds suppress marble burying at doses that are devoid of motor-impairing effects as measured on the rotorod. […]
# male NIH Swiss mice [2] = experiment: Nestlet shredding; type: in vivo, mouse; conditions: 30 min, rotorod for motor impairment
# Text: Mice naturally will construct nests of material available in their living environment. Since this behavior is obsessive in nature, it has been used to model OCD (Xia Li, Denise Morrow and Jeffrey M. Witkin, “Decreases in nestlet shredding of mice by serotonin uptake inhibitors: comparison with marble burying”, Psychopharmacology, submitted Jul. 14, 2003). House experimentally-naïve male, NIH Swiss mice (Harlan Sprague-Dawley, Indianapolis, Ind.) weighing between 28-35 g in groups of 12 for at least three days prior to testing in a vivarium with a 12 h light/dark cycle. Conduct experiments during the light cycle in an experimental room with normal overhead fluorescent lighting. Dose mice with vehicle or test compound and after a specified pretreatment interval (generally 30 min.), place the mice individually in a 17×28×12 cm high plastic tub with about 5 mm sawdust shavings on the floor along with a pre-weighed multi-ply gauze pad (51 mm square). After 30 min., weigh the remainder of the gauze pad not removed by the mouse. Determine the weight of the gauze used for nestlet construction by subtraction. Compare the results for test compound treated mice to the results for vehicle control treated mice with Dunnett's test.
# Clinically effective OCD treatment standard compounds suppress nestlet shredding at doses that are devoid of motor-impairing effects as measured by the rotorod test. […]
structure (smiles),measurement,setting,value
CNC1=Nc2ccc(Cl)cc2C(c2ccccc2)=[N+]([O-])C1 [chlordiazepoxide],Marble burying,male NIH Swiss mice [1],decrease marble burying only at doses that also disrupt rotorod performance
same,Nestlet shredding,male NIH Swiss mice [2],decreases nestlet shredding only at doses that produce motoric side effects
